Data as given in PubChem BioAssay AID1259254 (NCATS, 2017)

Assay: 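Gene knock-downs that lead to re-replication, shown by excess G2 DNA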 (primary screen)
Cells: human HCT116 colorectal cancer cells
Reagent: single siRNA against human genes
Time to read-out: 3 days
Measurement: 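Nuclei stained with Hoechst and imaged; cell-cycle phase assigned by DNA content; G2 share scaled per plate, non-targeting siRNA 0%, GMNN siRNA 100%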
Direction: G2 robust z-score: higher = more G2 cells, more excess DNA replication
Active means: 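Active siRNAs have a G2 robust z of 5 or more median absolute deviations over the median, which in these data means about 38% or higher of GMNN control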
This is a random part of about 59,000 deposited reagents. Of all reagents, about 1,550 (2.6%) were called active. 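G2 share is only a proxy for re-replication; each gene was hit by three separate siRNAs, and active genes were retested.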 Entries without a mark were called inactive. Reagents against one gene are numbered here. Further read-outs or replicates are left out here. No sequences are given here. Not given: the amount of reagent.

For VAMP8 #1, the entry reads G2 robust z-score 0.727.
Depletion of VAMP8 #2 resulted in: G2 robust z-score -0.221.
Knock-down of VAMP8 #3 gave: G2 robust z-score 0.216.
With knock-down of MORF4L2 #1 the results were G2 robust z-score 1.8.
After knock-down of MORF4L2 #2, the record shows G2 robust z-score 0.824.
For MORF4L2 #3, the entry reads G2 robust z-score 5.44 (active).
With knock-down of ZC3H7B #1 the results were G2 robust z-score 2.78.
Knock-down of ZC3H7B #2 came out at: G2 robust z-score 0.0312.
Against ZC3H7B #3, the entry reads G2 robust z-score 6.25 (active).
After knock-down of C9orf40 #1 the results were G2 robust z-score 2.61.
C9orf40 #2 scored G2 robust z-score -0.125.
C9orf40 #3 showed G2 robust z-score -0.424.
With knock-down of TATDN3 #1 the results were G2 robust z-score 4.18.
Depletion of TATDN3 #2 gave: G2 robust z-score 2.13.
For TATDN3 #3 the deposit lists G2 robust z-score -0.281.
Against MAP1S #1 the deposit lists G2 robust z-score 0.0485.
Against MAP1S #2, the values are G2 robust z-score 1.82.
Silencing of MAP1S #3 gave: G2 robust z-score 0.362.
With knock-down of NHLH2 #1 the results were G2 robust z-score 1.42.
With knock-down of NHLH2 #2, the screen gave G2 robust z-score 0.266.
NHLH2 #3 scored G2 robust z-score -0.892.
Against TMEM257 (retired record) #1, the entry reads G2 robust z-score -0.0606.
Silencing of TMEM257 (retired record) #2 resulted in: G2 robust z-score -0.774.
After knock-down of TMEM257 (retired record) #3, the screen gave G2 robust z-score 3.65.
